Reference: US20030021796A1, “Method of enhancing T cell immunity by selection of antigen specific T cells” (priority 2001, published 2003)
“Also recorded” adds a separate entry of the source. Part of at least one peptide drawing is inferred or uncertain, most often the ends. Some of these results come from one statement about several compounds together. Residues, ends and D or L forms follow the SMILES beside them.

Assays:
[1] = tested on: transgenic CD4^+ thymocytes; test: Positive selection of CD4^+ thymocytes after peptide injection into TCR^TgTCRα^−H2-M^−Ii^− mice (flow cytometry of thymus); type: in vivo, mouse; conditions: for negative selection by antagonist peptide alone (deletion of CD4^+CD8^+ thymocytes) / positive selection by antagonist peptide alone (number of CD4^+ transgenic T cells in the thymus): doses up to 50 μg i.p.; for effect on thymic selection: exogenous peptides without agonist properties
From the text: Mice. The TCR genes were cloned from T cell hybridoma specific for analogs of the PCC(43-58) peptide and expressed in VA-hCD2 cassette (Ignatowicz et al., 1997; Kraj et al., 2001; Zhumabekov et al., 1995). All TCR transgenic mice were made by co-microinjection of the respective […] and TCRβ constructs into fertilized eggs of F1 (C57BL/6×CBA/Ca) mice. TCR Tg mice were crossed to C57B16/TCRα^− (Jackson Laboratory, ME) mice and to mice deficient in H2-M (kindly provided by E. Bikoff and R. Germain) and Ii (kindly provided by L. van Kaer) to obtain TCR^TgTCRα^− H2-M^−Ii^−.
Flow cytometry analysis. Monoclonal antibodies specific for CD4(RM4-5), CD8(53-6.7), VβB8(F23.1), CD69(H1.2F3), CD44(IM7) and CD62L(MEL-14) were purchased from PharMingen (San Diego, Calif.) and used according to manufacturer's recommendations. Cells were analyzed using a FACSCalibur instrument (Becton Dickinson, San Jose, Calif.) and CellQuest software. For intracellular stain cells were first stained for CD4 and CD8, fixed in 2% paraformaldehyde, permeabilized in 0.1% Tween-20 and stained with anti-bcl-2 antibody (Pharmingen) according to manufacturer instruction.
Peptide injections and surgical procedures. TCR^TgTCRα^− and TCR^TgTCRαH2-M^−Ii^− were injected i.p. with agonist and control peptides dissolved in PBS. After indicated time mice were sacrificed, thymus and lymph nodes were collected and single cell suspensions were prepared. Pups were injected with 2 μg of peptide subcutaneously 12-24 hours after birth and thymi were transplanted into recipient mice 24 hours after injection. 5-8 week old TCR^TgTCRα^− H2-M^−Ii^− mice were used for thymectomy or as thymic transplant recipients. Surgical procedures were performed as described (Coligan et al., 1997). Mice were handled according with the institutional guidance.

[2] = tested on: purified CD4^+ TCR^Tg lymphocytes; test: Antagonism assay: inhibition of the proliferative response to APCs prepulsed with the antigenic peptide; type: cell-based, mouse; conditions: for activity class of peptide in antagonism assay: added at 0.01, 0.1, 1 and 10 μM to APCs pulsed with PCC50V54A; for reduction of the response of transgenic CD4^+ T cells to agonist peptide: response to agonist peptide PCC50A54A in the presence of the analog
[3] = tested on: TCR^TgTCRα^− lymph node cells; test: Proliferation of TCR transgenic lymph node cells stimulated with agonist peptides ([3H]thymidine incorporation); type: cell-based, mouse; conditions: in vitro stimulation of transgenic T cells
Experimental: Antigen response of TCR transgenic cells. Proliferation of lymph node cells isolated from TCR^TgTCRα^−and TCR^TgTCRα^−2-M^−Ii^− mice injected with the selecting peptide was measured in response to antigen. Response of the TCR^TgTCRα^− lymph node cells to different agonist peptides was measured by proliferation assay in a 96-well plate. 10^5 responder cells were stimulated with peptides presented by 5×10^5 irradiated C57BL6 splenocytes. Agonist peptides were used at concentrations of 0.01, 0.1, 0.5, 1.0, 2.5, 5.0, 10.0 and 20.0 μM. After 3 days cells were pulsed with 1 μCi of [^3H]thymidine added to each well and after 18 hours thymidine incorporation was measured. The sequences of peptides used were: PCC50V (AEGFSYTVANKNKGIT), PCC50L (AEGFSYTLANKNKGIT), PCC50V54A (AEGFSYTVANKAKGIT), PCC46A49A50V54A (AEGASYAVANKAKGIT), PCC50F54A (AEGFSYTFANKAKGIT), neutral ceramidase (AGFFQYTLYILASEG) and IgGVH (NADFKTPATLTVDKA). […] Proliferation was measured after 3 days by thymidine incorporation by pulsing cells with 1 μCi of [^3H] thymidine for 18 hours. […] For antagonism assays the percent of proliferation inhibition was calculated as 100-100*(thymidine incorporation in the presence of antagonist/thymidine incorporation in the absence of antagonist) (Lyons et al., 1996).

Row | SMILES | negative selection by antagonist peptide alone (deletion of CD4^+CD8^+ thymocytes) [1] | positive selection by antagonist peptide alone (number of CD4^+ transgenic T cells in the thymus) [1] | effect on thymic selection [1] | activity class of peptide in antagonism assay [2] | reduction of the response of transgenic CD4^+ T cells to agonist peptide [2] | agonist potency / agonist properties [3] | effect of antagonist on positive selection induced by agonist ([1]; 3 μg PCC50V54A + 3 μg antagonist i.p., 48 hours)
1 | CC[C@H](C)[C@H](NC(=O)CNC(=O)[C@H](CCCCN)NC(=O)[C@H](CC(N)=O)NC(=O)[C@H](CCCCN)NC(=O)[C@H](CC(N)=O)NC(=O)[C@H](C)NC(=O)[C@H](CC(N)=O)NC(=O)[C@@H](NC(=O)[C@H](Cc1ccc(O)cc1)NC(=O)[C@H](CO)NC(=O)[C@H](Cc1ccccc1)NC(=O)CNC(=O)[C@H](CCC(=O)O)NC(=O)[C@H](C)N)[C@@H](C)O)C(=O)N[C@H](C(=O)O)[C@@H](C)O [PCC50N] (H-AEGFSYTNANKNKGIT-OH) | nor induced deletion | did not result in increased number of CD4^+ transgenic T cells | had no effect on thymic selection | antagonist | more than 50% | without agonist properties | –
2 | CC[C@H](C)[C@H](NC(=O)CNC(=O)[C@H](CCCCN)NC(=O)[C@H](CC(N)=O)NC(=O)[C@H](CCCCN)NC(=O)[C@H](CC(N)=O)NC(=O)[C@H](C)NC(=O)[C@H](CCC(=O)O)NC(=O)[C@@H](NC(=O)[C@H](Cc1ccc(O)cc1)NC(=O)[C@H](CO)NC(=O)[C@H](Cc1ccccc1)NC(=O)CNC(=O)[C@H](CCC(=O)O)NC(=O)[C@H](C)N)[C@@H](C)O)C(=O)N[C@H](C(=O)O)[C@@H](C)O [PCC50E] (H-AEGFSYTEANKNKGIT-OH) | nor induced deletion; also recorded: do not induce negative or positive selection | did not result in increased number of CD4^+ transgenic T cells; also recorded: do not induce negative or positive selection | had no effect on thymic selection | antagonist | more than 50% | without agonist properties | inhibit positive selection
